PubChem BioAssay AID504808, Drosophila RNAi Screening Center – 2011
In all, the deposit lists about 21,000 reagents; this is an unselected part of those that have a named target and a result. In the full data, 18 (0.084%) were called active. 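Raw counts without plate normalisation, one of two replicates; the ratio scores behind the calls were not deposited.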 Names joined by + are all predicted targets of the reagent. Reagent sequences are not shown. The record does not give: the amount of reagent, the time to read-out.

- Assay: 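Fly genes required to hold E2F transcription in check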 (primary screen)
- System: Drosophila S2 cells
- Knock-down reagent: long dsRNA against Drosophila genes
- Detection: 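Dual luciferase plate measurements; E2F-specific signal taken as firefly over Renilla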
- Reading the numbers: E2F firefly: higher = more E2F reporter activity; Renilla normaliser: higher = more normaliser reporter signal
- Rule for the call: 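Called active if the normalised E2F reporter went up by over 50%; the cutoff is arbitrary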

"E2F firefly, rep 1","Renilla normaliser, rep 1",activity call,gene,DRSC id
93341,3853,inactive,MFS18 (Major Facilitator Superfamily Transporter 18),DRSC00452
1.33e5,6386,inactive,CG34200,DRSC04804
73821,3784,inactive,CG11656,DRSC14338
90314,3980,inactive,CG16965,DRSC02547
1.09e5,3970,inactive,CG16852,DRSC01876
96059,3710,inactive,wash (washout),DRSC06302
1.34e5,5996,inactive,MAGE,DRSC12504
94158,3729,inactive,ND-15 (NADH dehydrogenase (ubiquinone) 15 kDa subunit),DRSC00311
5640,354,inactive,Acsf3 (Acyl-CoA synthetase family member 3),DRSC18146
1.27e5,5274,inactive,zip (zipper),DRSC04725
2925,181,inactive,CG8520,DRSC07206
7698,748,inactive,ND-20 (NADH dehydrogenase (ubiquinone) 20 kDa subunit),DRSC20164
1.56e5,6653,inactive,CG18549,DRSC15347
1.31e5,6255,inactive,tey (teyrha-meyrha),DRSC11042
6906,856,inactive,Paics (PAICS bifunctional enzyme),DRSC20305
53918,3421,inactive,Arms (Ankyrin repeat-rich membrane spanning),DRSC03856
1.29e5,4720,inactive,Arms (Ankyrin repeat-rich membrane spanning),DRSC03857
78235,3508,inactive,Arms (Ankyrin repeat-rich membrane spanning),DRSC04052
86673,3934,inactive,Arms (Ankyrin repeat-rich membrane spanning),DRSC04256
1.36e5,5223,inactive,Nadk1a (NAD kinase 1a),DRSC05431
2889,210,inactive,Nadk1a (NAD kinase 1a),DRSC06963
1.07e5,4249,inactive,otp (orthopedia),DRSC04050
1.01e5,4055,inactive,otp (orthopedia),DRSC04707
87503,3338,inactive,CG2991,DRSC00559
89865,7179,inactive,HP1b (Heterochromatin Protein 1b),DRSC18418
77901,3278,inactive,Faf2 (Fas-associated factor 2),DRSC03325
1425,840,inactive,Taf3 (TBP-associated factor 3),DRSC17170
1.10e5,5685,inactive,Esp (Epidermal stripes and patches),DRSC16664
1.48e5,6882,inactive,CG14564,DRSC11725
49854,3358,inactive,CG32767,DRSC18386
1.41e5,4838,inactive,CG12795,DRSC00354
94425,4258,inactive,Spt-I (Serine palmitoyltransferase subunit I),DRSC06860
1.29e5,6341,inactive,Atg8a (Autophagy-related 8a),DRSC18024
62714,3303,inactive,CG7342,DRSC16230
1.20e5,6441,inactive,apn (apnoia),DRSC15124
1.34e5,7487,inactive,CG5180,DRSC15731
1.04e5,4604,inactive,CG12362,DRSC09884
1.38e5,7230,inactive,CG10738,DRSC09792
55869,4224,inactive,sv (shaven),DRSC17221
8208,652,inactive,CG7766,DRSC18424
67376,3453,inactive,D19A,DRSC11133
78187,3463,inactive,HP1c (Heterochromatin Protein 1c),DRSC16166
84524,3493,inactive,CG13676,DRSC10035

Targets above whose gene name starts with A or a (7):
"E2F firefly, rep 1","Renilla normaliser, rep 1",activity call,gene,DRSC id
5640,354,inactive,Acsf3 (Acyl-CoA synthetase family member 3),DRSC18146
53918,3421,inactive,Arms (Ankyrin repeat-rich membrane spanning),DRSC03856
1.29e5,4720,inactive,Arms (Ankyrin repeat-rich membrane spanning),DRSC03857
78235,3508,inactive,Arms (Ankyrin repeat-rich membrane spanning),DRSC04052
86673,3934,inactive,Arms (Ankyrin repeat-rich membrane spanning),DRSC04256
1.29e5,6341,inactive,Atg8a (Autophagy-related 8a),DRSC18024
1.20e5,6441,inactive,apn (apnoia),DRSC15124

The list goes on.
"E2F firefly, rep 1","Renilla normaliser, rep 1",activity call,gene,DRSC id
1.40e5,6050,inactive,CG11710,DRSC20485
70733,2251,inactive,CG32606 (retired record),DRSC19001
2.29e5,6673,inactive,CG32606 (retired record),DRSC19371
1.95e5,13028,inactive,CG32606 (retired record),DRSC19372
2.24e5,8183,inactive,CG32606 (retired record),DRSC19373
99589,4171,inactive,ItgaPS5 (Integrin alphaPS5 subunit),DRSC04501
1.24e5,6841,inactive,Prtl99C (Protamine-like 99C),DRSC15049
1.32e5,7204,inactive,CG5217,DRSC15740
1.47e5,5185,inactive,Stt3A,DRSC20514
1.17e5,6925,inactive,CG14854,DRSC14978
83140,3546,inactive,Or82a (Odorant receptor 82a),DRSC11996
1.26e5,4494,inactive,"Dnah3 (dynein, axonemal, heavy chain 3)",DRSC08130
1.09e5,4219,inactive,"Dnah3 (dynein, axonemal, heavy chain 3)",DRSC08513
68517,3697,inactive,CG11597,DRSC09847
79445,3800,inactive,Rev1 (DNA polymerase Rev1),DRSC08264
1.04e5,4064,inactive,Hsp60D (Heat shock protein 60D),DRSC02543
1.48e5,7155,inactive,GstD6 (Glutathione S transferase D6),DRSC16687
1.44e5,5304,inactive,CG30054,DRSC05354
69063,3120,inactive,Ythdc1 (YTH domain containing 1),DRSC08141
75770,3018,inactive,CG33232 (retired record),DRSC08187
97571,3523,inactive,CG33232 (retired record),DRSC08495
1.37e5,3918,inactive,Hipk (Homeodomain interacting protein kinase),DRSC07885
74963,3357,inactive,Hipk (Homeodomain interacting protein kinase),DRSC08507
1.36e5,5984,inactive,Cpr12A (Cuticular protein 12A),DRSC19722
86861,3659,inactive,DMAP1 (DNA methyltransferase 1 associated protein 1),DRSC06044
55536,3591,inactive,f (forked),DRSC19174
1.48e5,5741,inactive,f (forked),DRSC19516
1.34e5,5803,inactive,f (forked),DRSC20331
1.09e5,4653,inactive,OtopLc (Otopetrin-like c),DRSC18082
82833,4478,inactive,OtopLc (Otopetrin-like c),DRSC18083
1.19e5,4964,inactive,OtopLc (Otopetrin-like c),DRSC18132
1.32e5,6523,inactive,CG34331,DRSC20679
1.10e5,5707,inactive,CG15894,DRSC18098
44143,3239,inactive,CG15894,DRSC18099
1.44e5,6310,inactive,repo (reversed polarity),DRSC16369
1.11e5,6226,inactive,CG17111,DRSC15174
74291,3629,inactive,CG8060,DRSC07064
77410,2820,inactive,SNF4Agamma (SNF4/AMP-activated protein kinase gamma subunit),DRSC13461
71638,2678,inactive,SNF4Agamma (SNF4/AMP-activated protein kinase gamma subunit),DRSC13463
1.19e5,7006,inactive,SNF4Agamma (SNF4/AMP-activated protein kinase gamma subunit),DRSC15879
72095,3098,inactive,SNF4Agamma (SNF4/AMP-activated protein kinase gamma subunit),DRSC16847
71166,5846,inactive,sta (stubarista),DRSC18838
1.29e5,6899,inactive,Trissin,DRSC14994
1.15e5,4259,inactive,CG18563,DRSC02676
8002,760,inactive,CG15891 + CG15892,DRSC18095
1.04e5,4872,inactive,CG15891 + CG15892,DRSC18096
1.07e5,4267,inactive,CG30416,DRSC04565
69296,3974,inactive,CG14740,DRSC14960
97416,4003,inactive,Vps20 (Vacuolar protein sorting 20),DRSC04448
1.53e5,6734,inactive,disco-r (disco-related),DRSC20173
1.64e5,6278,inactive,disco-r (disco-related),DRSC20174
1.05e5,4001,inactive,Pex7 (Peroxin 7),DRSC10651
1.50e5,4644,inactive,Fkbp59 (FK506-binding protein 59kD),DRSC03323
83229,3567,inactive,CG11345,DRSC08176
96176,3996,inactive,vvl (ventral veins lacking),DRSC11409
2457,214,inactive,Ercc1,DRSC07424
1.14e5,7176,inactive,EMC2B (ER membrane protein complex subunit 2B),DRSC15506
3354,62,inactive,Dgat2 (Diacylglycerol O-acyltransferase 2),DRSC06803
96218,3879,inactive,CG6583,DRSC02972
65317,3928,inactive,atl (atlastin),DRSC16089
69328,3127,inactive,Tasp1 (Taspase 1),DRSC10495
76642,3139,inactive,Atg3 (Autophagy-related 3),DRSC10736
93172,3999,inactive,CG3698,DRSC11749
1.16e5,6982,inactive,CG5892,DRSC15910
